# Measurements: PubChem BioAssay AID624246 (National Center for Advancing Translational Sciences (NCATS), 2012)
# The chains behind the UniProt entries cited, without tags or fusion partners. Where a name states a change or a piece, a line headed by the entry shows the natural chain unless it says otherwise.
# UniProt P11308: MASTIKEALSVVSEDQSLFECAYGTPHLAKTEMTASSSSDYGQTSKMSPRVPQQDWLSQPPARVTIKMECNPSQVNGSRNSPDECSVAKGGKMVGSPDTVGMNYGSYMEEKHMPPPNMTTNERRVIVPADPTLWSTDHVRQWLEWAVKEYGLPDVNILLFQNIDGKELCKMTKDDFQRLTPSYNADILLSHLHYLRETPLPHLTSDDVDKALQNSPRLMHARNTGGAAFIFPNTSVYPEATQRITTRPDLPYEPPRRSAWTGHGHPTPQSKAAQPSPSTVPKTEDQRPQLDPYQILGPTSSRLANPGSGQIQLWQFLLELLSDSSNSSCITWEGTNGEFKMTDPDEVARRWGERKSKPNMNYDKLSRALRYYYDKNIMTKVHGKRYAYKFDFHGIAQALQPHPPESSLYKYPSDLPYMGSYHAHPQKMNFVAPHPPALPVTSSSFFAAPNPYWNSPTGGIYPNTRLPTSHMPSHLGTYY
# Hit rate of the full screen: of about 370,000 compounds, about 100 (0.027%) were called active. The shares of active, inactive and inconclusive entries below differ from those in the screen. The call rests on the fitted dose curve; in most records, active means well fitted inhibition curve with a large enough effect in the polarisation, with a control signal flat; inconclusive means small, poorly fitted or top-dose-only effect, or effect the other way, or a change in a side signal; inactive means no such curve, though single readings can be large or run the other way; the % refers to the polarisation. Where the call is inconclusive, the potency comes from a doubtful curve fit. “Side channel” marks fits to a control or component signal instead of the main read-out.
# Target: Transcriptional regulator ERG (Homo sapiens) (UniProt P11308)
# Assay: qHTS for Small Molecule Inhibitors of the ERG Ets/DNA interaction
# Settings: fluorescence polarization, His-ERG Ets domain / labelled DNA; series mostly up to 76.9 µM
# How it was run: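 His-tagged ERG Ets domain (1 uM in the protein solution; 300mM KCl, 50mM Tris-HCl, 1mM EDTA, 1mM DTT, pH 7.5) received compound, then a probe mix of 5 nM fluorescein-DNA and 100nM Texas-615-DNA. Fluorescence polarization was read for both dyes.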
# Potency means the concentration at half of the fitted maximal effect.
row,Compound,Potency
1,COc1cccc2c1C(=N)c1c(O)c3c(c(O)c1C2=O)CC(O)(C(C)=O)CC3OC1CC(N)C(O)C(C)O1 (stereo unspecified),"inconclusive: 12.6 µM [inhibitor, partial curve, poor fit]"
2,O=C(COc1ccc(F)cc1)NN1C(=O)CSC1=S,"inconclusive: 22.4 µM [fluorescent, side channel, partial curve, poor fit]"
3,CC[C@]12c3[nH]c4cc(-c5ccco5)ccc4c3CCN1C(=O)[C@@H](CC(=O)NCCc1ccccn1)C[C@@H]2C(=O)N1CCN(C(=O)c2ccco2)CC1,inactive
4,N#CC1(C#N)COC23CCCCC2C1(C#N)C(=N)O3 (stereo unspecified),"inconclusive: 100 µM [inhibitor, single point]"
5,COc1ccc(NC(=S)Nc2ncccc2C)cc1OC,inactive
6,CN(CCO)C1=NS(=O)(=O)c2cc([N+](=O)[O-])ccc21,"inconclusive: 50.1 µM [inhibitor, single point]"
7,Cc1ccc2sc(NNC(=O)c3ccc4c(c3)OCCO4)nc2c1C,"inconclusive: 50.1 µM [inhibitor, single point]"
8,COc1ccc(Nc2c3c(nc4ccc(NC(=O)/C=C/c5cccc(OC)c5OC)cc24)CCCC3)cc1OC,"inconclusive: 44.7 µM [quencher, side channel, partial curve, poor fit]"
9,O=C(CCNC(=O)C1CCN(S(=O)(=O)c2ccccc2)CC1)NCc1ccc(Cl)cc1Cl,inactive
10,O=C(Nc1ccc(Cl)cc1)N1CCc2[nH]c3ccccc3c2C1,"inconclusive: 39.8 µM [quencher, side channel, single point]"
11,CCOc1ccccc1NC(=O)Cn1nnc2sc3c(c2c1=O)CCC(C(C)(C)C)C3 (stereo unspecified),"inconclusive: 6.31 µM [fluorescent, side channel, single point]"
12,Oc1c(Br)cc(Br)cc1/C=N/N1CCN(Cc2ccccc2)CC1,inactive
13,O=C(Nc1ccc(O)c(-c2nc3ccccc3o2)c1)c1ccco1,"inconclusive: 50.1 µM [quencher, side channel, single point]"
14,COc1ccccc1CN(C)C(=O)C(NC(=O)Cc1cccc2ccccc12)C(C)C (stereo unspecified),"inconclusive: 25.1 µM [inhibitor, partial curve, poor fit]"
15,CC1Cc2c([nH]c3ccccc23)C(=O)N1 (stereo unspecified),"inconclusive: 5.01 µM [inhibitor, full curve, poor fit]"
16,CC1CCN(C2=NC(=O)/C(=C/c3ccccc3F)S2)CC1,"inconclusive: 44.7 µM [inhibitor, single point]"
17,CCOc1ccccc1C1CC(c2ccc(Br)cc2)Nc2nc(N)nn21 (stereo unspecified),"inconclusive: 11.2 µM [inhibitor, partial curve, poor fit]"
18,CC(O)c1ccc(OCCN(C)c2ccccn2)cc1 (stereo unspecified),"inconclusive: 50.1 µM [inhibitor, single point]"
19,Cc1ccc(S(=O)(=O)N2CCOCC2)cc1NC(=O)CSc1nccn1C,"inconclusive: 79.4 µM [inhibitor, single point]"
20,O=C(/C=C/c1cccc([N+](=O)[O-])c1)NCCSCc1cccc(Cl)c1,inactive
21,CCCC(=O)Nn1cnc2c(c1=O)C1(CCCCC1)Cc1ccccc1-2,"inconclusive: 39.8 µM [inhibitor, partial curve, poor fit]"
22,CN1CCN(S(=O)(=O)c2ccc(Cl)c3ccccc23)CC1,"inconclusive: 39.8 µM [inhibitor, single point]"

# Exported with bars between the fields: entries from further up.
row | Compound | Potency
17 | CCOc1ccccc1C1CC(c2ccc(Br)cc2)Nc2nc(N)nn21 (stereo unspecified) | inconclusive: 11.2 µM [inhibitor, partial curve, poor fit]
18 | CC(O)c1ccc(OCCN(C)c2ccccn2)cc1 (stereo unspecified) | inconclusive: 50.1 µM [inhibitor, single point]
19 | Cc1ccc(S(=O)(=O)N2CCOCC2)cc1NC(=O)CSc1nccn1C | inconclusive: 79.4 µM [inhibitor, single point]
20 | O=C(/C=C/c1cccc([N+](=O)[O-])c1)NCCSCc1cccc(Cl)c1 | inactive

# The listing continues.

row,Compound,Potency
1,CCCN(Cc1nnc(-c2ccccc2Cl)o1)C(=O)COc1ccc(Cl)cc1,inactive
2,COc1ccc(NC(=O)C(=O)NCCCO)cc1Cl,"inconclusive: 50.1 µM [quencher, side channel, single point]"
3,CCCOc1ccc(C(=O)Nc2ccc3oc(-c4ccc(N(C)C)cc4)nc3c2)cc1,"inconclusive: 11.2 µM [quencher, side channel, single point]"
4,COc1ccccc1-n1c(SCC(=O)O)nc2c(sc(=S)n2-c2ccccc2C)c1=O,inactive
5,COc1ccc(CNC(=O)C2=CC(c3cccc(OC)c3)=NS(=O)(=O)N2C)cc1,"inconclusive: 28.2 µM [quencher, side channel, partial curve, poor fit]"
6,O=C(NCCCNC(=O)c1ccccc1Br)c1ccccc1Br,"inconclusive: 7.08 µM [inhibitor, single point]"
7,COc1ccc(OC)c(Nc2nc(-c3sc(C)nc3C)cs2)c1,"inconclusive: 35.5 µM [quencher, side channel, partial curve, poor fit]"
8,NC1=NC(c2cc(F)cc(F)c2)n2c(nc3ccccc32)N1 (stereo unspecified),"inconclusive: 8.91 µM [quencher, side channel, partial curve, poor fit]"
9,CCOC(=O)N1CCC(NC(=O)CCCC(=O)O)CC1,"inconclusive: 0.794 µM [inhibitor, full curve, poor fit]"
10,CCCCCC(=O)NC(=S)Nc1cccc(-c2nc3ncccc3o2)c1,"inconclusive: 11.2 µM [inhibitor, single point]"
11,Nc1nncn1C(=O)c1ccccc1Cl,"inconclusive: 35.5 µM [fluorescent, side channel, partial curve, poor fit]"
12,Cc1ccc2oc(-c3cccc(NC(=O)c4ccc(N5CCC(C)CC5)c([N+](=O)[O-])c4)c3)nc2c1,"inconclusive: 50.1 µM [fluorescent, side channel, single point]"
13,CCOc1ccc(-c2nc(C#N)c(NC3CC3)o2)cc1,inactive
14,O=c1c(-c2ccccc2)c[nH]n1-c1cccc([N+](=O)[O-])c1,"inconclusive: 11.2 µM [inhibitor, single point]"
15,CC(C)Oc1cccc(C(=O)C2CCCN(Cc3ccc4nonc4c3)C2)c1 (stereo unspecified),"inconclusive: 35.5 µM [inhibitor, single point]"
16,COc1ccc(CNC(=O)COC(=O)CCOc2ccccc2)cc1,"inconclusive: 3.55 µM [inhibitor, partial curve, poor fit]"
17,N#C/C(=C\c1c(N2CCC(C(N)=O)CC2)nc2ccccn2c1=O)C(=O)NCc1ccco1,"inconclusive: 56.2 µM [inhibitor, single point]"
18,CCOC(=O)N1CCC(NC(=O)Cc2ccccc2)CC1,"inconclusive: 50.1 µM [inhibitor, single point]"
19,COc1ccc2nc3c(cc2c1)c(NC(=O)CC(C)C)nn3CC(C)C,inactive
20,CCCC1=NN2C(=N)/C(=C\c3ccc(SCc4ccco4)o3)C(=O)N=C2S1,"inconclusive: 25.1 µM [fluorescent, side channel, partial curve]"
21,CCCc1cc(=O)n2[nH]c(SCc3ccc(Cl)cc3)nc2n1,inactive
22,CCN(C(=O)CSc1nc2cc(C(=O)O)ccc2c(=O)n1Cc1ccccc1)c1ccccc1,"inconclusive: 11.2 µM [inhibitor, single point]"

row,Compound,Potency
1,CCC(C)Sc1ccc([C@H]2N[C@@](Cc3ccccc3)(C(=O)OC)[C@H]3C(=O)N(CC)C(=O)[C@@H]23)cc1 (stereo partly specified),inactive
2,Cn1c(Oc2ccccc2)c(C=O)c2ccccc21,inactive
3,CN(CC(=O)Nc1ccccc1Cl)CC(=O)Nc1sc2c(c1C(N)=O)CCC2,"inconclusive: 11.2 µM [inhibitor, partial curve]"
4,CCOc1ccc(C(c2c(C)[nH][nH]c2=O)c2c(C)[nH][nH]c2=O)cc1OC,inactive
5,COc1cnc(-c2ccccn2)nc1Oc1ccc(Cl)c2ccccc12,inactive
6,CCOc1ccc(CN(C)C(=O)c2cccnc2OCC)cc1OC,"inconclusive: 2.24 µM [quencher, side channel, full curve]"
7,N/C(=N\OC(=O)COc1ccc(Br)cc1)c1ccncc1,inactive
8,COc1ccc(Nc2ccc3cc(S(=O)(=O)N4CCCC4)ccc3n2)cc1OC,inactive
9,OCCC1CN(CCCc2ccccc2)CCN1CCc1ccccc1 (stereo unspecified),"inconclusive: 11.2 µM [inhibitor, single point]"
10,COc1ccc(Nc2ncnc3sccc23)cc1OC,"inconclusive: 50.1 µM [inhibitor, single point]"
11,O=C(Nc1nc(-c2ccccc2Cl)cs1)c1cccnc1,inactive
12,COc1ccc(OC)c(/C=N/NC(=O)CCCC(=O)Nc2cccc(Br)c2)c1,"inconclusive: 3.55 µM [inhibitor, partial curve, poor fit]"
13,C=CCn1c(CNC(=O)c2ccccc2F)nnc1SCc1nc2ccccc2c(=O)[nH]1,"inconclusive: 28.2 µM [inhibitor, partial curve, poor fit]"
14,CCN(CC)c1ccc(/C=C2/C(=O)c3ccc(C(=O)O)cc3C2=O)cc1,"inconclusive: 22.4 µM [fluorescent, side channel, partial curve]"
15,CCO/C(=C/c1sc2ccc(OC)cc2[n+]1CCCS(=O)(=O)[O-])CC,"inconclusive: 79.4 µM [inhibitor, single point]"
16,CCN(Cc1nc(-c2cccc(C)c2)no1)C(=O)c1ccc2c(c1)OCO2,inactive
17,CC(C)(C)c1cc(C(=O)NC2CC2)n(Cc2ccc(F)cc2)n1,inactive
18,CCOc1ccccc1COC(=O)c1cccc(-n2cnnn2)c1,inactive
19,Cn1cccc1C(=O)OCC(=O)N1CCc2ccccc21,inactive
20,CCCCCCSc1cc(-c2nc3cnccn3c2NCc2ccccc2)ccc1OC,inactive
21,Cn1c(=O)n(CCc2ccccc2)c(=O)c2c1nc1n2CCN1Cc1ccco1,inactive
22,FC(F)(F)COc1cc(-c2nnc(SCc3ccccc3)n2Cc2ccco2)cc(OCC(F)(F)F)n1,"inconclusive: 12.6 µM [inhibitor, partial curve, poor fit]"
